According to the supplement of paper PMC6078165:

Test system: MDAMB468
Assay: relative JC-1 red fluorescence (viability) vs pre-drug, coculture with fibroblast (fraction); higher = more viable cancer cells
Procedure: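 JC-1 labelled TNBC cells cocultured 1:1 (1,500 cells each) with CellTrace Violet stained primary or stromal fibroblasts in 384-well plates in FluoroBrite medium, treated with one of 42 anticancer drugs at 0.1, 1, 10 or 100 uM. JC-1 red fluorescence (mitochondrial integrity in cancer cells only) was read by plate reader every 8 h for 72 h. Values are normalised to each well's pre-drug value. The stock of one drug was tenfold lower, so its dose labels may be too high.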

O=NN(CCCl)C(=O)NCCCl [Carmustine]
relative JC-1 red fluorescence
Conditions	8 h	16 h	24 h	32 h	40 h	48 h	56 h	64 h	72 h
10 µM, coculture fibroblast: C12385	0.8787	0.8291	0.7681	0.6965	0.6505	0.6256	0.5839	0.5494	0.5278
10 µM, coculture fibroblast: H6013	0.871	0.817	0.782	0.769	0.735	0.729	0.697	0.676	0.632
10 µM, coculture fibroblast: H6019	0.849	0.7972	0.785	0.74	0.702	0.684	0.629	0.594	0.564
10 µM, coculture fibroblast: H6076	0.9733	0.84	0.9113	0.91	0.8347	0.8095	0.761	0.7343	0.778
10 µM, coculture fibroblast: H6231	0.823	0.925	0.852	0.8614	0.7883	0.76252	0.707	0.6707	0.6604
10 µM, coculture fibroblast: HADF	0.889	0.848	0.7927	0.7722	0.7196	0.712	0.661	0.641	0.591
10 µM, coculture fibroblast: HCFa	0.868	0.814	0.776	0.758	0.698	0.693	0.651	0.622	0.573
10 µM, coculture fibroblast: HCPF	0.957	0.95	0.961	0.966	0.887	0.867	0.825	0.807	0.797
10 µM, coculture fibroblast: HHSteC	0.9013	0.866	0.829	0.8	0.7505	0.74614	0.684	0.653	0.603
10 µM, coculture fibroblast: HMF	0.908	0.906	0.969	0.951	0.87	0.844	0.802	0.778	0.758
10 µM, coculture fibroblast: HPFa	0.918	0.868	0.8	0.728	0.664	0.646	0.573	0.533	0.457
10 µM, coculture fibroblast: HUF	0.8995	0.826	0.745	0.6777	0.62	0.592	0.551	0.525	0.501
10 µM, coculture fibroblast: Hs5	0.778	0.853	0.82	0.941	0.871	0.836	0.791	0.755	0.786
10 µM, coculture fibroblast: Hs27A	0.842	0.781	0.754	0.747	0.689	0.675	0.631	0.597	0.54
10 µM, coculture fibroblast: Hs343T	0.9128	0.98	0.909	0.901	0.826	0.809	0.745	0.73	0.705
10 µM, coculture fibroblast: WS1	0.8671	0.7942	0.706	0.628	0.5707	0.529	0.493	0.447	0.4224
100 µM, coculture fibroblast: C12385	0.83318	0.8034	0.78	0.7265	0.6931	0.69216	0.6595	0.638	0.6192
100 µM, coculture fibroblast: H6013	0.875	0.87327	0.8395	0.8347	0.8345	0.8499	0.835	0.837	0.787
100 µM, coculture fibroblast: H6019	0.8353	0.818	0.799	0.754	0.713	0.703	0.667	0.633	0.611
100 µM, coculture fibroblast: H6076	0.9115	0.927	0.8926	0.913	0.869	0.88	0.863	0.868	0.918
100 µM, coculture fibroblast: H6231	0.7848	0.85	0.817	0.818	0.77	0.7494	0.703	0.684	0.682
100 µM, coculture fibroblast: HADF	0.8741	0.8842	0.8369	0.8379	0.816	0.811	0.768	0.765	0.7
100 µM, coculture fibroblast: HCFa	0.91	0.912	0.893	0.878	0.858	0.866	0.83	0.811	0.76
100 µM, coculture fibroblast: HCPF	0.852	0.876	0.839	0.8437	0.7762	0.751	0.716	0.705	0.707
100 µM, coculture fibroblast: HHSteC	0.859	0.822	0.791	0.76	0.744	0.741	0.705	0.692	0.653
100 µM, coculture fibroblast: HMF	0.849	0.913	0.867	0.85	0.773	0.765	0.728	0.714	0.709
100 µM, coculture fibroblast: HPFa	0.913	0.906	0.868	0.81	0.797	0.797	0.737	0.728	0.653
100 µM, coculture fibroblast: HUF	0.88	0.828	0.808	0.756	0.732	0.721	0.6844	0.679	0.6652
100 µM, coculture fibroblast: Hs5	0.9391	0.9222	0.909	0.9052	0.852	0.839	0.823	0.798	0.835
100 µM, coculture fibroblast: Hs27A	0.839	0.8839	0.8256	0.8318	0.8167	0.81608	0.794	0.781	0.729
100 µM, coculture fibroblast: Hs343T	0.8512	0.8907	0.8225	0.802	0.728	0.719	0.685	0.663	0.643
100 µM, coculture fibroblast: WS1	0.845	0.781	0.741	0.682	0.648	0.615	0.587	0.558	0.545

Values are relative to the signal before dosing, not to a vehicle control; the signal also falls without drug.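 Fibroblast labels denote human fibroblasts, mainly primary ones from uterus (C12385, HUF), lung (H6013), bone (Hs27A), adrenal (HADF) and skin (WS1), plus mammary HMF and breast cancer-associated Hs343T. Cancer cells are basal-like or mesenchymal-like triple-negative breast cancer lines. A hit is a response shift exceeding 3x replicate standard deviation. The tissue of the other fibroblasts is not given here.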
